# In US20240390508A1 (priority 2021, published 2024):
# How the values were obtained:
# [1] = general procedure: Fmoc solid-phase peptide synthesis; Fmoc-Gly-Alko resin; Fmoc-AA/HATU/DIEA (4.2/4/8 equivalents); conditions: whole synthesis, scale 0.05 mmol
# [2] = general procedure: Fmoc solid-phase peptide synthesis; Fmoc-βAla-Alko resin; Fmoc-AA/HATU/DIEA (4.2/4/8 equivalents); conditions: whole synthesis, scale 0.05 mmol
# [3] = general procedure: Fmoc solid-phase peptide synthesis; Sieber amide resin; Fmoc-AA/HATU/DIEA (4.2/4/8 equivalents); conditions: whole synthesis, scale 50 μmol
substance,measurement,setting,value
4-pentynoyl-AEEA-Arg-Arg-Arg-Gly-OH,crude mass,[1],34.0 mg
BCN-AEEA-Arg-Arg-Arg-(3 Åla-OH,isolated mass,[2],55.3 mg
BCN-Gly-Gly-Gly-Glu-Glu-Glu-Ser-Ser-Cys(tBuS)—NH2,isolated mass,[3],35.4 mg
